Experimental data: PMC4391915
These are yes or no findings as the source states them, for the method shown. Some results given as binding are weak or reduced against the parent protein; the word gives no strength.

Amino acid sequences for entries named in this document (tags omitted). Residues count along the entry.
UniProt Q9Y6Q9, residues 392-1005: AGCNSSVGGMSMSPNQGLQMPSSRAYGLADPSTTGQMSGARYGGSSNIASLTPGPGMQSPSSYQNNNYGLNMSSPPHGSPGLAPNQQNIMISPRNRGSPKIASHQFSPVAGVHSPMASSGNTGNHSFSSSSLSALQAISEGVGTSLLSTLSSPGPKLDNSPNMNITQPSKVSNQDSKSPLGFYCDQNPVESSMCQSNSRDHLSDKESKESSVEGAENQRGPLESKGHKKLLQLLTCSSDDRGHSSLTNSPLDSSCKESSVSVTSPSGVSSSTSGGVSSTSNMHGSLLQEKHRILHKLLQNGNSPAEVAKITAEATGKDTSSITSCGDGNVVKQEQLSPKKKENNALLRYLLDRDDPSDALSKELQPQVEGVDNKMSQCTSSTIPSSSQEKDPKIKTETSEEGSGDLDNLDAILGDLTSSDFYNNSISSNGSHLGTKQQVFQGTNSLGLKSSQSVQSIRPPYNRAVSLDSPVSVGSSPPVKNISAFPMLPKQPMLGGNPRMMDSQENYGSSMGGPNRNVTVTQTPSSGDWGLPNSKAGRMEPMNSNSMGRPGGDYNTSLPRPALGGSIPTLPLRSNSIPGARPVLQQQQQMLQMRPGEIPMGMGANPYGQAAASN
UniProt Q15596, residues 479-767: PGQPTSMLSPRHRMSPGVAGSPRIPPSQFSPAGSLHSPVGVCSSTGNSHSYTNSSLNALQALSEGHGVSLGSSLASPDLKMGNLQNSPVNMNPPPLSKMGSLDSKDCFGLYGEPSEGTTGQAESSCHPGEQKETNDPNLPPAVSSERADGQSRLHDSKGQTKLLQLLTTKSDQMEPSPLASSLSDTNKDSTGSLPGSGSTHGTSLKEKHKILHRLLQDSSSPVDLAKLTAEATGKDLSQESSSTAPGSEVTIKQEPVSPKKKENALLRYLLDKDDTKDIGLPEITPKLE

Tests used:
[1] = target: pM-ACTR(392-1005) (Gal4 DNA-binding domain fused to the NR box of human ACTR) (human) (UniProt Q9Y6Q9); experiment: two-hybrid; mammalian 2-hybrid in HepG2 cells; pVP16-VDR as prey, pM-SRC1, pM-GRIP1 or pM-ACTR as bait; 5XGal4-TATA-Luc reporter; 120 nM 1,25D3 for 24 h; with cotransfected pCDNA-RXRWT
[2] = target: pM-ACTR(392-1005) (Gal4 DNA-binding domain fused to the NR box of human ACTR) (human) (UniProt Q9Y6Q9); experiment: two-hybrid; mammalian 2-hybrid in HepG2 cells; pVP16-VDR as prey, pM-SRC1, pM-GRIP1 or pM-ACTR (NR box fused to the Gal4 DNA-binding domain) as bait; 5XGal4-TATA-Luc reporter; 120 nM 1,25D3 for 24 h; without cotransfected pCDNA-RXRWT
[3] = target: pM-GRIP1(479-767) (Gal4 DNA-binding domain fused to the NR box of human GRIP1) (human) (UniProt Q15596); experiment: as above

binding [1]: no binding | binding [2]: no binding | binding [3]: binds
B1: pVP16-human VDR (human vitamin D receptor) (receptor, UniProt P11473 1-427)
chain: MEAMAASTSLPDPGDFDRNVPRICGVCGDRATGFHFNAMTCEGCKGFFRRSMKRKALFTCPFNGDCRITKDNRRHCQACRLKRCVDIGMMKEFILTDEEVQRKREMILKRKEEEALKDSLRPKLSEEQQRIIAILLDAHHKTYDPTYSDFCQFRPPVRVNDGGGSHPSRPNSRHTPSFSGDSSSSCSDHCITSSDMMDSSSFSNLDLSEEDSDDPSVTLELSQLSMLPHLADLVSYSIQKVIGFAKMIPGFRDLTSEDQIVLLKSSAIEVIMLRSNESFTMDDMSWTCGNQDYKYRVSDVTKAGHSLELIEPLIKFQVGLKKLNLHEEEHVLLMAICIVSPDRPGVQDAALIEAIQDRLSNTLQTYIRCRHPPPGSHLLYAKMIQKLADLRSLNEEHSKQYRCLSFQPECSMKLTPLVLEVFGNEIS
